{
  "source": "patent US20240002368A1",
  "about": "(QILU REGOR THERAPEUTICS INC., priority 2020, published 2024)",
  "origin": "cited, not measured here",
  "tested_on": "STAT-1 phosphorylation (pSTAT1)",
  "conditions": "CANDLE and SAVI patients in vitro; cited from earlier work",
  "note": "At least one structure is not confirmed: it was looked up by name or label, or the drawing left a doubt.",
  "data": [
    {"smiles": "CCS(=O)(=O)N1CC(CC#N)(n2cc(-c3ncnc4[nH]ccc34)cn2)C1", "note": "[baricitinib]", "values": [
      {"measurement": "Type-I and Type-II IFN-induced STAT-1 phosphorylation (pSTAT1)", "result": "reduce"}
    ]}
  ]
}
